From patent US20080207725A1, “Phenyl-Pyrazole Derivatives as Non-Steroidal Glucocorticoid Receptor Ligands” (Glaxo Group Limited, a corporation, priority 2005, published 2008)
Some of these results come from one statement about several compounds together.

Experiments:
[1] = target: T1, glucocorticoid receptor (Homo sapiens, UniProt P04150); test: Glucocorticoid receptor binding assay (fluorescence polarisation, competition with Alexa 555 labelled dexamethasone); conditions: displacement of fluorescent dexamethasone, partially purified full length GR, 2 hours room temperature
T1 construct: a partially purified full length glucocorticoid receptor
T1 sequence (P04150 1-777): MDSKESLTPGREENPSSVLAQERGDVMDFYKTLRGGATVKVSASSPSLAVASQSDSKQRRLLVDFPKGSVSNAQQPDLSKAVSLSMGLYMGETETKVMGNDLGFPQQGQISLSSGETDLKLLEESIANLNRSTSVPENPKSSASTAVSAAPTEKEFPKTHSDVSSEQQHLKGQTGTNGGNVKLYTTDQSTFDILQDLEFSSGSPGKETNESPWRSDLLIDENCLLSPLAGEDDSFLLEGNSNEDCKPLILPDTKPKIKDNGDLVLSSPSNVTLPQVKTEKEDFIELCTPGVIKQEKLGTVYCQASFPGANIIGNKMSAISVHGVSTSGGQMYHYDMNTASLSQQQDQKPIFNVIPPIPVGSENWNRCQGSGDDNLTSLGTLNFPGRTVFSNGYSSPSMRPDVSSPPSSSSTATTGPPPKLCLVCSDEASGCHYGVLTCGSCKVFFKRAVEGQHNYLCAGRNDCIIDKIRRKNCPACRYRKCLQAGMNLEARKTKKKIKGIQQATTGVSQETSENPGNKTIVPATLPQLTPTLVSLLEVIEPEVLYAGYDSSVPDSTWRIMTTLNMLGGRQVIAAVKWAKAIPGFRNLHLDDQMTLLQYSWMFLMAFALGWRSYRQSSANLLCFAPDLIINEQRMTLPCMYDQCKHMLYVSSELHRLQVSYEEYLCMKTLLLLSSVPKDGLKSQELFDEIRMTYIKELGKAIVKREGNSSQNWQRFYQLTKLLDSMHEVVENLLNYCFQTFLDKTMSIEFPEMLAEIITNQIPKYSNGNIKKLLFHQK

[2] = target: T2, Progesterone Receptor (Homo sapiens, UniProt P06401); test: Assay for progesterone receptor activity (CV-1 cells, PRb-BacMam / MMTV-BacMam reporter); format: cell-based; conditions: CV-1 cells transduced with PRb-BacMam and MMTV-BacMam, 24 hours
T2 construct: expressed in transfected cells; host or cells: CV-1 cells transduced with PRb-BacMam and MMTV-BacMam (reporter)
T2 sequence (P06401 1-933): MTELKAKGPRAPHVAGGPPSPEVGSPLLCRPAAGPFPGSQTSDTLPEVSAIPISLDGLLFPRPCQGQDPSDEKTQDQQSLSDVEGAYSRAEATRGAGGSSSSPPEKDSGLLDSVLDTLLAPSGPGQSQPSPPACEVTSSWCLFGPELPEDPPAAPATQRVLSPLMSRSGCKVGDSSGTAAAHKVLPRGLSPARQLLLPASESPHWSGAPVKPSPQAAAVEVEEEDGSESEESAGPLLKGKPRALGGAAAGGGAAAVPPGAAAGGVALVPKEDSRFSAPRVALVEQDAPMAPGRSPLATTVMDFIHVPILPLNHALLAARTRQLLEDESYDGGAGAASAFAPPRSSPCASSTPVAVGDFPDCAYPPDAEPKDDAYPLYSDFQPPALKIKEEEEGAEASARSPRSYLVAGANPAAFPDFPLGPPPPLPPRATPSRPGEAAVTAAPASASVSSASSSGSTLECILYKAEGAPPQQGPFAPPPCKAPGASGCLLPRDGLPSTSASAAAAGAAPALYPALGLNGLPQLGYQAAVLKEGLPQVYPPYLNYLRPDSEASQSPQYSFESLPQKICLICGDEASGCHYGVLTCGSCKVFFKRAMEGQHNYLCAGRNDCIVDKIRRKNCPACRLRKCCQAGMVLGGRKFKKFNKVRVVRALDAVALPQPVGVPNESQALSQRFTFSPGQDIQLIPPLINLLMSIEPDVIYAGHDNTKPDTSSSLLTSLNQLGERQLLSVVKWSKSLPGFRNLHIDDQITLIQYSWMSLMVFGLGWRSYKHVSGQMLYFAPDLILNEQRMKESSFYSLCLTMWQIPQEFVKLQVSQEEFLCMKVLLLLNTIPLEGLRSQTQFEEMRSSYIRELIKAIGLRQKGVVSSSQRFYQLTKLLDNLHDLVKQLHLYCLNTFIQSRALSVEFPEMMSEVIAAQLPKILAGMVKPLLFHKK

Row | Compound | glucocorticoid binding pIC50 [1] | pEC50, progesterone receptor activity [2]
1 | CC(C)(C[C@@](O)(CNC(=O)c1cnn(-c2ccccc2)c1N)C(F)(F)F)c1cccc2c1OCC2 [Example 1, (2R)-5-Amino-N-[4-(2,3-dihydro-1-benzofuran-7-yl)-2-hydroxy-4-methyl-2-(trifluoromethyl)pentyl]-1-phenyl-1H-pyrazole-4-carboxamide] | > 7.5 | < 6
2 | COc1ccc(F)cc1C(C)(C)C[C@@](O)(CNC(=O)c1cnn(-c2ccc(F)cc2)c1N)C(F)(F)F [Example 2, (2R)-5-Amino-N-[4-[5-fluoro-2-(methyloxy)phenyl]-2-hydroxy-4-methyl-2-(trifluoromethyl)pentyl]-1-(4-fluorophenyl)-1H-pyrazole-4-carboxamide] | > 7.5 | < 6
3 | COc1ccc(F)cc1C(C)(C)C[C@@](O)(CNC(=O)c1cnn(-c2ccccc2F)c1N)C(F)(F)F [Example 3, (2R)-5-Amino-N-[4-[5-fluoro-2-(methyloxy)phenyl]-2-hydroxy-4-methyl-2-(trifluoromethyl)pentyl]-1-(2-fluorophenyl)-1H-pyrazole-4-carboxamide] | > 7.5 | < 6
4 | COc1ccc(F)cc1C(C)(C)C[C@@](O)(CNC(=O)c1cnn(-c2ccc(F)cc2F)c1N)C(F)(F)F [Example 4, (2R)-5-Amino-1-(2,4-difluorophenyl)-N-[4-[5-fluoro-2-(methyloxy)phenyl]-2-hydroxy-4-methyl-2-(trifluoromethyl)pentyl]-1H-pyrazole-4-carboxamide] | > 7.5 | < 6
5 | COc1ccc(F)cc1C(C)(C)C[C@@](O)(CNC(=O)c1cnn(-c2ccc(Cl)cc2)c1N)C(F)(F)F [Example 5, (2R)-5-Amino-1-(4-chlorophenyl)-N-[4-[5-fluoro-2-(methyloxy)phenyl]-2-hydroxy-4-methyl-2-(trifluoromethyl)pentyl]-1H-pyrazole-4-carboxamide] | > 7.5 | < 6
6 | COc1ccc(F)cc1C(C)(C)C[C@@](O)(CNC(=O)c1cnn(-c2ccccc2)c1N)C(F)(F)F [Example 6, (2R)-5-Amino-N-[4-[5-fluoro-2-(methyloxy)phenyl]-2-hydroxy-4-methyl-2-(trifluoromethyl)pentyl]-1-phenyl-1H-pyrazole-4-carboxamide] | > 7.5 | < 6
7 | CC(C)(C[C@@](O)(CNC(=O)c1cnn(-c2ccc(F)cc2)c1N)C(F)(F)F)c1cc(F)ccc1O [Example 7, (2R)-5-Amino-N-[4-(5-fluoro-2-hydroxyphenyl)-2-hydroxy-4-methyl-2-(trifluoromethyl)pentyl]-1-(4-fluorophenyl)-1H-pyrazole-4-carboxamide] | > 7.5 | < 6
8 | CC(C)(C[C@@](O)(CNC(=O)c1cnn(-c2ccccc2F)c1N)C(F)(F)F)c1cc(F)ccc1O [Example 8, (2R)-5-Amino-N-[4-(5-fluoro-2-hydroxyphenyl)-2-hydroxy-4-methyl-2-(trifluoromethyl)pentyl]-1-(2-fluorophenyl)-1H-pyrazole-4-carboxamide] | > 7.5 | < 6
9 | CC(C)(C[C@@](O)(CNC(=O)c1cnn(-c2ccc(F)cc2F)c1N)C(F)(F)F)c1cc(F)ccc1O [Example 9, (2R)-5-Amino-1-(2,4-difluorophenyl)-N-[4-(5-fluoro-2-hydroxyphenyl)-2-hydroxy-4-methyl-2-(trifluoromethyl)pentyl]-1H-pyrazole-4-carboxamide] | > 7.5 | < 6
10 | CC(C)(C[C@@](O)(CNC(=O)c1cnn(-c2ccc(Cl)cc2)c1N)C(F)(F)F)c1cc(F)ccc1O [Example 10, (2R)-5-Amino-1-(4-chlorophenyl)-N-[4-(5-fluoro-2-hydroxyphenyl)-2-hydroxy-4-methyl-2-(trifluoromethyl)pentyl]-1H-pyrazole-4-carboxamide] | > 7.5 | < 6
11 | CC(C)(C[C@@](O)(CNC(=O)c1cnn(-c2ccccc2)c1N)C(F)(F)F)c1cc(F)ccc1O [Example 11, (2R)-5-Amino-N-[4-(5-fluoro-2-hydroxyphenyl)-2-hydroxy-4-methyl-2-(trifluoromethyl)pentyl]-1-phenyl-1H-pyrazole-4-carboxamide] | > 7.5 | < 6
12 | CC(C)(C[C@@](O)(CNC(=O)c1cnn(-c2ccccc2F)c1N)C(F)(F)F)c1cccc2c1OCC2 [Example 12, (2R)-5-Amino-N-[4-(2,3-dihydro-1-benzofuran-7-yl)-2-hydroxy-4-methyl-2-(trifluoromethyl)pentyl]-1-(2-fluorophenyl)-1H-pyrazole-4-carboxamide] | > 7.5 | 
13 | CC(C)(C[C@@](O)(CNC(=O)c1cnn(-c2ccc(F)cc2)c1N)C(F)(F)F)c1cccc2c1OCC2 [Example 13, (2R)-5-Amino-N-[4-(2,3-dihydro-1-benzofuran-7-yl)-2-hydroxy-4-methyl-2-(trifluoromethyl)pentyl]-1-(4-fluorophenyl)-1H-pyrazole-4-carboxamide] | > 7.5 | 
14 | CC(C)(C[C@@](O)(CNC(=O)c1cnn(-c2ccc(F)cc2F)c1N)C(F)(F)F)c1cccc2c1OCC2 [Example 14, (2R)-5-Amino-1-(2,4-difluorophenyl)-N-[4-(2,3-dihydro-1-benzofuran-7-yl)-2-hydroxy-4-methyl-2-(trifluoromethyl)pentyl]-1H-pyrazole-4-carboxamide] | > 7.5 | 
15 | CC(C)(C[C@@](O)(CNC(=O)c1cnn(-c2ccc(Cl)cc2)c1N)C(F)(F)F)c1cccc2c1OCC2 [Example 15, (2R)-5-Amino-1-(4-chlorophenyl)-N-[4-(2,3-dihydro-1-benzofuran-7-yl)-2-hydroxy-4-methyl-2-(trifluoromethyl)Pentyl]-1H-pyrazole-4-carboxamide] | > 7.5 | 
